Assay results: the supplement of paper PMC6078165
The reference is the same well before dosing, and untreated signal decays as well.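 Labels refer to human fibroblasts, largely primary: uterine (C12385, HUF), lung (H6013), bone (Hs27A), adrenal (HADF), skin (WS1), plus mammary HMF and breast cancer-associated Hs343T. Cancer lines are basal-like or mesenchymal-like triple-negative breast cancer. The paper counts as hits responses shifting over 3x the replicate standard deviation. The tissue of the other fibroblasts is not given here.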

Tested on: MDAMB468
Test: relative JC-1 red fluorescence (viability) vs pre-drug, coculture with fibroblast (fraction); higher = more viable cancer cells
Procedure: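 JC-1 labelled TNBC cells cocultured 1:1 (1,500 cells each) with CellTrace Violet stained primary or stromal fibroblasts in 384-well plates in FluoroBrite medium, treated with one of 42 anticancer drugs at 0.1, 1, 10 or 100 uM. JC-1 red fluorescence (mitochondrial integrity in cancer cells only) was read by plate reader every 8 h for 72 h. Values are normalised to each well's pre-drug value. The stock of one drug was tenfold lower, so its dose labels may be too high.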

CC(C)(C#N)c1cc(Cn2cncn2)cc(C(C)(C)C#N)c1 [Anastrozole]
relative JC-1 red fluorescence
Conditions	8 h	16 h	24 h	32 h	40 h	48 h	56 h	64 h	72 h
0.1 µM, coculture fibroblast: C12385	0.8541	0.755	0.706	0.644	0.591	0.585	0.545	0.515	0.503
0.1 µM, coculture fibroblast: H6013	0.821	0.802	0.752	0.728	0.693	0.701	0.675	0.665	0.624
0.1 µM, coculture fibroblast: H6019	0.81	0.784	0.741	0.692	0.641	0.625	0.571	0.534	0.507
0.1 µM, coculture fibroblast: H6076	0.925	0.952	0.848	0.815	0.739	0.713	0.668	0.642	0.659
0.1 µM, coculture fibroblast: H6231	0.823	0.929	0.8208	0.81	0.752	0.728	0.677	0.646	0.634
0.1 µM, coculture fibroblast: HADF	0.867	0.817	0.741	0.713	0.655	0.641	0.595	0.5807	0.5424
0.1 µM, coculture fibroblast: HCFa	0.8445	0.8304	0.773	0.738	0.682	0.672	0.628	0.588	0.544
0.1 µM, coculture fibroblast: HCPF	0.8754	0.935	0.8569	0.838	0.77376	0.7424	0.678	0.666	0.644
0.1 µM, coculture fibroblast: HHSteC	0.867	0.836	0.787	0.74	0.692	0.69	0.625	0.596	0.552
0.1 µM, coculture fibroblast: HMF	0.824	0.929	0.835	0.8054	0.728	0.697	0.647	0.628	0.606
0.1 µM, coculture fibroblast: HPFa	0.9446	0.875	0.836	0.779	0.743	0.733	0.656	0.621	0.544
0.1 µM, coculture fibroblast: HUF	0.905	0.824	0.785	0.716	0.664	0.633	0.581	0.557	0.527
0.1 µM, coculture fibroblast: Hs5	0.869	0.949	0.885	0.852	0.783	0.749	0.696	0.658	0.668
0.1 µM, coculture fibroblast: Hs27A	0.858	0.799	0.733	0.728	0.668	0.661	0.617	0.589	0.552
0.1 µM, coculture fibroblast: Hs343T	0.87	0.942	0.84	0.781	0.692	0.664	0.611	0.592	0.564
0.1 µM, coculture fibroblast: WS1	0.817	0.742	0.677	0.613	0.555	0.523	0.4931	0.467	0.461
1 µM, coculture fibroblast: C12385	0.8802	0.829	0.773	0.735	0.7073	0.702	0.663	0.64	0.635
1 µM, coculture fibroblast: H6013	0.905	0.877	0.795	0.79	0.771	0.771	0.734	0.725	0.675
1 µM, coculture fibroblast: H6019	0.8438	0.7764	0.769	0.716	0.682	0.674	0.6312	0.6039	0.577
1 µM, coculture fibroblast: H6076	0.929	0.917	0.866	0.8914	0.8223	0.8204	0.791	0.783	0.848
1 µM, coculture fibroblast: H6231	0.825	0.90723	0.827	0.806	0.752	0.74	0.681	0.65	0.643
1 µM, coculture fibroblast: HADF	0.91	0.837	0.778	0.762	0.699	0.692	0.654	0.635	0.597
1 µM, coculture fibroblast: HCFa	0.895	0.8452	0.8041	0.787	0.737	0.73	0.669	0.636	0.575
1 µM, coculture fibroblast: HCPF	0.86579	0.969	0.8221	0.804	0.7381	0.71	0.659	0.64	0.619
1 µM, coculture fibroblast: HHSteC	0.9236	0.886	0.8333	0.796	0.753	0.745	0.678	0.653	0.591
1 µM, coculture fibroblast: HMF	0.8538	0.88	0.862	0.826	0.761	0.74	0.688	0.6629	0.644
1 µM, coculture fibroblast: HPFa	0.9463	0.909	0.824	0.752	0.692	0.689	0.624	0.583	0.503
1 µM, coculture fibroblast: HUF	0.888	0.793	0.747	0.674	0.623	0.601	0.558	0.536	0.515
1 µM, coculture fibroblast: Hs5	0.805	0.896	0.969	0.948	0.881	0.856	0.826	0.802	0.828
1 µM, coculture fibroblast: Hs27A	0.873	0.815	0.784	0.7706	0.723	0.711	0.671	0.645	0.591
1 µM, coculture fibroblast: Hs343T	0.882	0.948	0.861	0.8477	0.7837	0.7649	0.715	0.7	0.685
1 µM, coculture fibroblast: WS1	0.8629	0.788	0.7038	0.6292	0.6011	0.5725	0.539	0.509	0.5
10 µM, coculture fibroblast: C12385	0.8846	0.788	0.742	0.685	0.643	0.616	0.568	0.53	0.51
10 µM, coculture fibroblast: H6013	0.8756	0.862	0.833	0.821	0.813	0.824	0.811	0.799	0.755
10 µM, coculture fibroblast: H6019	0.803	0.789	0.7487	0.6824	0.642	0.6151	0.5652	0.532	0.505
10 µM, coculture fibroblast: H6076	0.933	0.859	0.89048	0.8473	0.7658	0.7388	0.692	0.667	0.6911
10 µM, coculture fibroblast: H6231	0.8337	0.953	0.836	0.822	0.762	0.741	0.685	0.654	0.638
10 µM, coculture fibroblast: HADF	0.8953	0.826	0.775	0.755	0.69	0.682	0.63	0.615	0.578
10 µM, coculture fibroblast: HCFa	0.8706	0.842	0.799	0.763	0.691	0.69	0.633	0.598	0.565
10 µM, coculture fibroblast: HCPF	0.8787	0.9555	0.8989	0.875	0.8112	0.7808	0.7268	0.713	0.6849
10 µM, coculture fibroblast: HHSteC	0.8953	0.8662	0.827	0.788	0.741	0.735	0.661	0.633	0.589
10 µM, coculture fibroblast: HMF	0.842	0.871	0.919	0.873	0.811	0.778	0.714	0.692	0.661
10 µM, coculture fibroblast: HPFa	0.913	0.852	0.794	0.739	0.687	0.676	0.605	0.571	0.502
10 µM, coculture fibroblast: HUF	0.9196	0.842	0.7911	0.7246	0.6825	0.649	0.596	0.572	0.556
10 µM, coculture fibroblast: Hs5	0.865	0.98932	0.938	0.895	0.825	0.8	0.759	0.721	0.744
10 µM, coculture fibroblast: Hs27A	0.8647	0.821	0.7853	0.778	0.72	0.72	0.678	0.651	0.6038
10 µM, coculture fibroblast: Hs343T	0.8798	0.913	0.923	0.885	0.82	0.793	0.735	0.708	0.672
10 µM, coculture fibroblast: WS1	0.866	0.751	0.702	0.64	0.589	0.559	0.527	0.487	0.47
100 µM, coculture fibroblast: C12385	0.8742	0.8264	0.777	0.7236	0.671	0.653	0.606	0.574	0.547
100 µM, coculture fibroblast: H6013	0.89178	0.87	0.839	0.8468	0.825	0.834	0.8005	0.793	0.7339
100 µM, coculture fibroblast: H6019	0.871	0.8251	0.808	0.757	0.721	0.716	0.672	0.641	0.617
100 µM, coculture fibroblast: H6076	0.94	0.96713	0.939	0.946	0.869	0.873	0.852	0.846	0.916
100 µM, coculture fibroblast: H6231	0.82137	0.913	0.861	0.859	0.8197	0.79705	0.752	0.7347	0.723
100 µM, coculture fibroblast: HADF	0.89298	0.82401	0.788	0.791	0.737	0.738	0.705	0.689	0.65
100 µM, coculture fibroblast: HCFa	0.8732	0.866	0.81	0.808	0.73	0.733	0.678	0.642	0.595
100 µM, coculture fibroblast: HCPF	0.8758	0.849	0.912	0.901	0.817	0.801	0.76	0.746	0.736
100 µM, coculture fibroblast: HHSteC	0.9366	0.8731	0.8319	0.823	0.78	0.78	0.714	0.69	0.638
100 µM, coculture fibroblast: HMF	0.881	0.9716	0.9181	0.893	0.8265	0.806	0.76	0.746	0.73
100 µM, coculture fibroblast: HPFa	0.9449	0.9042	0.851	0.8131	0.7599	0.75	0.6665	0.642	0.5681
100 µM, coculture fibroblast: HUF	0.933	0.86	0.806	0.74	0.69	0.647	0.605	0.566	0.53843
100 µM, coculture fibroblast: Hs5	0.786	0.962	0.909	0.8759	0.8169	0.7769	0.732	0.694	0.71
100 µM, coculture fibroblast: Hs27A	0.85	0.804	0.7594	0.777	0.701	0.688	0.639	0.604	0.574
100 µM, coculture fibroblast: Hs343T	0.905	0.99757	0.936	0.919	0.838	0.821	0.774	0.755	0.727
100 µM, coculture fibroblast: WS1	0.9044	0.842	0.8	0.728	0.691	0.656	0.624	0.596	0.576
